Data set [1] relates to UAP56-N-UBM fusion (Homo sapiens). Briefly: GCI. The conditions noted are these: 1 mM ATP, RNA immobilized, higher affinity than UAP56, Kd only in figure, GCI: 25 mM HEPES pH 7.9, 50 mM KCl, 1 mM MgCl2, 1 mM TCEP, 25 C, unclamping: same with 40 mM KCl, 500 mM KCl washes, recombinant protein, protein details: 10xHis.
For data set [2], the target named is UAP56 (Homo sapiens) (UniProt Q13838). Nature of the data set: pull-down. The settings on record: ATP pre-clamped on bead-bound RNA, no challenger; AdML pull-down: 20 mM HEPES pH 7.9, 100 mM KCl, 2 mM MgCl2, 5% glycerol, 0.1% Igepal, 1 mM AMP-PNP, RT; recombinant protein; residues 1-428.
The target is the same in data set [3]. Briefly: pull-down (RNA unclamping). The conditions noted are these: ATP pre-clamped, challenged with TREX-2M, UAP56 removed almost completely; AdML pull-down: 20 mM HEPES pH 7.9, 100 mM KCl, 2 mM MgCl2, 5% glycerol, 0.1% Igepal, 1 mM AMP-PNP, RT; recombinant protein; residues 1-428.

The values that follow come from article PMC12823420.

For at least one entry, the source does not settle the construct or the ends of the probe. For part of these data: The comparison behind a weaker result is the experiment's own reference, which may not be listed here. For part of these data: At least one verdict was read from the data and is not stated in words by the source.

For the sequence UUUUUUUUUUUUUUU [15U RNA], the binding result in data set [1] is “binds”; in the data set with UAP56 (Homo sapiens) [2], “binds”; in the data set with UAP56 (Homo sapiens) [3], “binds more weakly”.
